Assay results published in PubChem BioAssay AID330 (DTP/NCI, 2004).
The list does not hold the whole screen: it is rich in T/C values a quarter to a half above the control, in often repeated tests (any T/C) and in doses without a T/C. Other doses and runs of a compound stand elsewhere. T/C is the treated group as % of the vehicle group. Some doses have a count of surviving animals in place of a T/C: the source files T/C as zero there, which appears to mark a toxic dose or a test without result, not a measured value. Some survivor counts are full or nearly so, which does not show that the dose was tolerated: survival well below the control is almost never listed, so the zero probably covers shortened survival too. Survivors were counted at the toxicity check, usually on the fifth day, unless a day is given; later deaths do not show. Schedules are NCI's codes, taken here to give the interval after Q, in days (D) or hours (H), and the number of doses after X. Some molecules as drawn cover several salts, stereoisomers or complexes of the source; a dose is that of the sample tested. Some entries hold several experiments; the results are listed from low to high. For survival time, this PubChem deposit counts one and a half times the control or more as active, and values a quarter to a half above the control carry no call in these data; other NCI protocols may use other cut-offs.

System: P388 leukemia ip, CD2F1 mice, survival T/C
Test: NCI In Vivo Anticancer Drug Screen. Data for tumor model P388 Leukemia (intraperitoneal) in CD2F1 (CDF1) mice
Conditions: T/C endpoint: median survival time, higher T/C = longer survival
[1] = dose: 200.0 mg/kg/injection, schedule: Q01DX009 (ip), vehicle: water
[2] = dose: 240.0 mg/kg/injection, schedule: Q01DX005 (ip), vehicle: Klucel (hydroxypropylcellulose) (HPC)
[3] = dose: 200.0 mg/kg/injection, schedule: Q01DX009 (ip), vehicle: saline with Tween-80
[4] = dose: 400.0 mg/kg/injection, schedule: Q01DX009 (ip), vehicle: saline with Tween-80
[5] = dose: 200.0 mg/kg/injection, schedule: Q01DX005 (ip), vehicle: saline with Tween-80
[6] = dose: 50.0 mg/kg/injection, schedule: Q01DX009 (ip), vehicle: Klucel (hydroxypropylcellulose) (HPC)
[7] = dose: 100.0 mg/kg/injection, schedule: Q01DX009 (ip), vehicle: Klucel (hydroxypropylcellulose) (HPC)
[8] = dose: 200.0 mg/kg/injection, schedule: Q01DX009 (ip), vehicle: Klucel (hydroxypropylcellulose) (HPC)
[9] = dose: 25.0 mg/kg/injection, schedule: Q01DX001 (ip), vehicle: saline
[10] = dose: 100.0 mg/kg/injection, schedule: Q01DX001 (ip), vehicle: saline
[11] = dose: 200.0 mg/kg/injection, schedule: Q01DX001 (ip), vehicle: saline
[12] = dose: 400.0 mg/kg/injection, schedule: Q01DX001 (ip), vehicle: saline
[13] = dose: 240.0 mg/kg/injection, schedule: Q01DX005 (ip), vehicle: saline with Tween-80

Question: With CN1CCC(CO)C1 (stereo unspecified) as the molecule, how does the survivor count (dose: 100.0 mg/kg/injection, schedule: Q01DX009 (ip), vehicle: water) read?
Answer: 5 of 6

Question: What about the survivor count [1] of the same molecule?
Answer: 2 of 6

Question: Which survivor count (dose: 50.0 mg/kg/injection, schedule: Q01DX009 (ip), vehicle: saline with Tween-80) does the source give for Cn1c(=O)c2c(c3ccccc31)Oc1oc3ccc4ccccc4c3c(=O)c1C2 here?
Answer: 6 of 6

Question: With O=CNNC(=O)c1cnccn1 as the molecule, how does the T/C (dose: 300.0 mg/kg/injection, schedule: Q01DX009 (ip), vehicle: water) read?
Answer: 127 % of control

Question: COc1cccc(-c2nc(-c3ccccc3)nc(N(C)C)n2)c1O was tested. Which survivor count [2] did it give?
Answer: 3 of 6

Question: O=C1NC(=O)N(C(F)(F)F)C(F)(F)N1C(F)(F)F was tested. Which survivor count (dose: 200.0 mg/kg/injection, schedule: Q01DX005 (ip), vehicle: Klucel (hydroxypropylcellulose) (HPC)) did it give?
Answer: 0 of 6

Question: For S=C(Nc1ccccn1)c1ccccn1, which survivor count [3] is on record?
Answer: 1 of 6

Question: What about the survivor count [4] of the same molecule?
Answer: 0 of 6

Question: Which survivor count (dose: 20.0 mg/kg/injection, schedule: Q01DX009 (ip), vehicle: water) does the source give for COc1ccc2c(c1OC)C[N+]1(C)CCc3cc4c(cc3C1=C2)OCO4 (stereo unspecified) here?
Answer: 3 of 6

Question: How did the survivor count (dose: 0.78 mg/kg/injection, schedule: Q01DX009 (ip), vehicle: saline) turn out when CCCCCC[N+]1(CC)CCCC1 was run?
Answer: 5 of 6

Question: And the survivor count (dose: 1.56 mg/kg/injection, schedule: Q01DX009 (ip), vehicle: saline)?
Answer: 6 of 6

Question: What about the survivor count (dose: 6.12 mg/kg/injection, schedule: Q01DX009 (ip), vehicle: saline) of the same molecule?
Answer: 6 of 6

Question: What about the survivor count (dose: 12.5 mg/kg/injection, schedule: Q01DX009 (ip), vehicle: saline) of the same molecule?
Answer: 6 of 6

Question: What about the survivor count (dose: 25.0 mg/kg/injection, schedule: Q01DX009 (ip), vehicle: saline) of the same molecule?
Answer: 5 of 6

Question: What about the survivor count (dose: 50.0 mg/kg/injection, schedule: Q01DX009 (ip), vehicle: saline) of the same molecule?
Answer: 3 of 6

Question: What about the survivor count (dose: 100.0 mg/kg/injection, schedule: Q01DX009 (ip), vehicle: saline) of the same molecule?
Answer: 0 of 6

Question: What about the survivor count (dose: 200.0 mg/kg/injection, schedule: Q01DX009 (ip), vehicle: saline) of the same molecule?
Answer: 0 of 6

Question: With CN(C)CCCOC1(Cc2ccc(F)cc2)CCCCCC1 as the molecule, how does the survivor count [5] read?
Answer: 0 of 5

Question: For Cc1cc([N+](=O)[O-])ccc1N=Nc1ccc(O)c(C(=O)O)c1, which survivor count [5] is on record?
Answer: 0 of 5

Question: Which results are given for CCC(=[Se])N(CC)CC?
Answer: survivor count (dose: 1.56 mg/kg/injection, schedule: Q01DX009 (ip), vehicle: Klucel (hydroxypropylcellulose) (HPC)): 0 of 6; survivor count (dose: 3.12 mg/kg/injection, schedule: Q01DX009 (ip), vehicle: Klucel (hydroxypropylcellulose) (HPC)): 5 of 6; survivor count (dose: 6.25 mg/kg/injection, schedule: Q01DX009 (ip), vehicle: Klucel (hydroxypropylcellulose) (HPC)): 0 of 6; survivor count (dose: 12.5 mg/kg/injection, schedule: Q01DX009 (ip), vehicle: Klucel (hydroxypropylcellulose) (HPC)): 0 of 6; survivor count (dose: 25.0 mg/kg/injection, schedule: Q01DX009 (ip), vehicle: Klucel (hydroxypropylcellulose) (HPC)): 0 of 6; survivor count [6]: 0 of 6; survivor count [7]: 0 of 6; survivor count [8]: 0 of 6

Question: With COc1ccc(C2=NCCc3cc(OC)c(OC)cc32)cc1OC as the molecule, how does the survivor count [1] read?
Answer: 0 of 6

Question: How did the survivor count [2] turn out when O=c1[nH]c2c([N+](=O)[O-])cc(Cl)cc2nc1/C=C(\O)c1ccncc1 was run?
Answer: 3 of 6

Question: What does the source list for CC1C[P+](c2ccccc2)(c2ccccc2)Cc2ccccc21 (stereo unspecified)?
Answer: survivor count (dose: 12.5 mg/kg/injection, schedule: Q01DX001 (ip), vehicle: saline): 2 of 6; T/C [9]: 155 % of control; survivor count [9]: 0 of 6, 1 of 6, 3 of 6; survivor count (dose: 50.0 mg/kg/injection, schedule: Q01DX001 (ip), vehicle: saline): 0 of 6; survivor count [10]: 0 of 6 and 1 of 6; survivor count [11]: 0 of 6; survivor count [12]: 0 of 6

Question: Which survivor count [10] does the source give for O=C(Cc1ccncc1)c1cccnc1 here?
Answer: 1 of 6

Question: What about the survivor count [11] of the same molecule?
Answer: 0 of 6

Question: What about the survivor count [12] of the same molecule?
Answer: 0 of 6

Question: How did the T/C (dose: 6.25 mg/kg/injection, schedule: Q01DX009 (ip), vehicle: saline with Tween-80) turn out when O=C(O)c1ccccc1N=Nc1ccc(N(CCCl)CCCl)cc1 was run?
Answer: 140 % of control

Question: What about the T/C (dose: 6.25 mg/kg/injection, schedule: Q04DX003 (ip), vehicle: Klucel (hydroxypropylcellulose) (HPC)) of the same molecule?
Answer: 137 % of control

Question: And the T/C (dose: 12.5 mg/kg/injection, schedule: Q04DX003 (ip), vehicle: Klucel (hydroxypropylcellulose) (HPC))?
Answer: 147 % of control

Question: And the survivor count (dose: 25.0 mg/kg/injection, schedule: Q04DX003 (ip), vehicle: Klucel (hydroxypropylcellulose) (HPC))?
Answer: 6 of 6

Question: What about the survivor count (dose: 50.0 mg/kg/injection, schedule: Q04DX003 (ip), vehicle: Klucel (hydroxypropylcellulose) (HPC)) of the same molecule?
Answer: 0 of 6

Question: And the survivor count (dose: 100.0 mg/kg/injection, schedule: Q01DX009 (ip), vehicle: saline with Tween-80)?
Answer: 6 of 6

Question: And the survivor count (dose: 100.0 mg/kg/injection, schedule: Q04DX003 (ip), vehicle: Klucel (hydroxypropylcellulose) (HPC))?
Answer: 3 of 6

Question: What about the survivor count [3] of the same molecule?
Answer: 6 of 6

Question: What about the survivor count (dose: 200.0 mg/kg/injection, schedule: Q04DX003 (ip), vehicle: Klucel (hydroxypropylcellulose) (HPC)) of the same molecule?
Answer: 0 of 6

Question: And the survivor count (dose: 400.0 mg/kg/injection, schedule: Q04DX003 (ip), vehicle: Klucel (hydroxypropylcellulose) (HPC))?
Answer: 0 of 6

Question: For CCOC(OCC)C(C)(C)CNC, which T/C (dose: 400.0 mg/kg/injection, schedule: Q01DX001 (ip), vehicle: saline sonified) is on record?
Answer: 131 % of control

Question: How did the survivor count (dose: 200.0 mg/kg/injection, schedule: Q01DX009 (ip), vehicle: distilled water + Tween-80) turn out when CCOC(=O)CCC(NC(=O)c1ccc(CBr)cc1)C(=O)OCC (stereo unspecified) was run?
Answer: 1 of 6

Question: Which T/C (dose: 30.0 mg/kg/injection, schedule: Q04DX003 (ip), vehicle: saline) does the source give for OCCN1CCN(CCCN2c3ccccc3Sc3ccc(C(F)(F)F)cc32)CC1 here?
Answer: 126 % of control

Question: How did the survivor count [8] turn out when CS(=O)(=O)OCC(Br)C(Br)COS(C)(=O)=O (stereo unspecified) was run?
Answer: 6 of 6

Question: With CC(C)(C)SC(=O)C[Si](C)(C)C as the molecule, how does the survivor count (dose: 400.0 mg/kg/injection, schedule: Q04DX003 (ip), vehicle: saline with Tween-80) read?
Answer: 6 of 6

Question: How did the T/C [4] turn out when CC1CCN(SSc2nc3ccccc3s2)CC1 was run?
Answer: 128 % of control

Question: For O=c1[nH]c2ccccc2nc1Cl, which survivor count [3] is on record?
Answer: 5 of 6

Question: How did the survivor count (dose: 12.5 mg/kg/injection, schedule: Q01DX005 (ip), vehicle: saline with Tween-80) turn out when CCn1c2ccccc2c2cc(/C=N/N=C/c3ccc4c(c3)c3ccccc3n4CC)ccc21 was run?
Answer: 5 of 5

Question: What about the survivor count (dose: 25.0 mg/kg/injection, schedule: Q01DX005 (ip), vehicle: saline with Tween-80) of the same molecule?
Answer: 5 of 5

Question: What about the survivor count (dose: 50.0 mg/kg/injection, schedule: Q01DX005 (ip), vehicle: saline with Tween-80) of the same molecule?
Answer: 5 of 5

Question: And the survivor count (dose: 100.0 mg/kg/injection, schedule: Q01DX005 (ip), vehicle: saline with Tween-80)?
Answer: 5 of 5

Question: What about the survivor count [5] of the same molecule?
Answer: 4 of 5

Question: Which survivor count (dose: 12.5 mg/kg/injection, schedule: Q04DX003 (ip), vehicle: saline with Tween-80) does the source give for CCN1C(=O)C=CC1=O here?
Answer: 2 of 6 and 5 of 6

Question: What about the survivor count (dose: 25.0 mg/kg/injection, schedule: Q04DX003 (ip), vehicle: saline with Tween-80) of the same molecule?
Answer: 0 of 6

Question: With CC(=O)O/C=C(/C=C/OC(C)=O)C(C/C=C(\C)C#CC=C(C)C)OC(C)=O (stereo unspecified) as the molecule, how does the survivor count (dose: 85.0 mg/kg/injection, schedule: Q01DX005 (ip), vehicle: saline with Tween-80) read?
Answer: 0 of 6

Question: With CCC1(C(=O)c2ccccc2)C(C(=O)OC)=NC(=N)N=C1C(=O)OC (stereo unspecified) as the molecule, how does the survivor count [13] read?
Answer: 0 of 6

Question: With CCCCCCCCCCCCCCCCCCOCC(O)CN(CCO)CCO (stereo unspecified) as the molecule, how does the survivor count [6] read?
Answer: 6 of 6

Question: And the survivor count [7]?
Answer: 2 of 6

Question: And the survivor count [8]?
Answer: 0 of 6

Question: What does the source list for O=c1oc2ccccc2c(O)c1C(c1ccc(Cl)cc1)c1c(O)c2ccccc2oc1=O?
Answer: survivor count (dose: 60.0 mg/kg/injection, schedule: Q01DX005 (ip), vehicle: saline with Tween-80): 3 of 6 and 4 of 6; survivor count (dose: 120.0 mg/kg/injection, schedule: Q01DX005 (ip), vehicle: saline with Tween-80): 3 of 6; survivor count [13]: 0 of 6
